# Values from PubChem BioAssay AID652272 (Drosophila RNAi Screening Center, 2013)
# Aim: 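Genome-wide knock-down search for components of Hedgehog signalling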 (primary screen)
# Cell system: Drosophila clone 8 (Cl8) cells
# Reagent: long dsRNA against Drosophila genes
# Read-out: 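Firefly light from a Hedgehog-responsive ptc promoter reporter and Renilla reference light, both read on a plate reader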
# Reading the numbers: firefly Hh reporter signal: higher = more ptc reporter light; Renilla reference signal: higher = more Renilla control light
# Hit rule: 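Called a hit if the two-replicate mean z-score lies below -2 or above +3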
# Meaning of the calls: active = hit: reporter lowered or raised; inactive = not a hit
# In all, the deposit lists about 21,000 reagents; shown is a random part of those with a known target gene and a result. Over the whole deposit, 503 (2.4%) got an active call. 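Raw plate light values, not normalised; calls rest on replicate z-scores that were not deposited; hits include reporter decreases as well as increases.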 A plus sign joins genes that one reagent is predicted to hit. Reagent sequences are not shown. The record does not give: the amount of reagent, the time to read-out.
Gene,DRSC id,"firefly Hh reporter signal, replicate 1","firefly Hh reporter signal, replicate 2","Renilla reference signal, replicate 1","Renilla reference signal, replicate 2",Call
Tsc1,DRSC16890,1.02e5,87829,4016,3257,inactive
CG10481,DRSC02063,74764,69993,1877,5228,inactive
CG14995,DRSC08452,36956,35536,2699,1670,inactive
Arl6IP1 (ADP-ribosylation factor-like 6 interacting protein 1),DRSC14231,64422,84449,1650,2196,inactive
CG16723,DRSC15138,4.34e5,87817,22948,2872,inactive
Sfmbt (Scm-related gene containing four mbt domains),DRSC02552,89689,47707,3908,2530,inactive
Pbp45 (PSEA-binding protein 45kD),DRSC16509,95448,1.16e5,1145,3094,inactive
Np (Notopleural),DRSC06089,92049,71018,2450,6784,inactive
Np (Notopleural),DRSC07094,1.35e5,80893,2485,6568,inactive
alc (alicorn),DRSC07062,1.28e5,81874,2896,6359,inactive
Hers + amn,DRSC20306,75223,1.63e5,1305,7994,inactive
CG10514,DRSC14249,5.90e5,1.11e5,24883,3445,inactive
Ir94a (Ionotropic receptor 94a),DRSC13538,50900,1.80e5,10392,3813,inactive
CG6432,DRSC16039,97488,1.29e5,4229,4930,inactive
CG14367,DRSC14829,90148,1.02e5,1813,2712,inactive
CG42327,DRSC14936,63824,89650,2096,4997,inactive
CG42327,DRSC14937,1.45e5,1.71e5,4661,4816,inactive
CG12795,DRSC00354,1.34e5,1.02e5,2774,5979,inactive
hoe1 (hoepel1),DRSC00265,55851,50450,2688,1945,inactive
hoe1 (hoepel1),DRSC00333,1.51e5,52461,4160,6289,inactive
hoe1 (hoepel1),DRSC00353,1.34e5,35029,3988,4828,inactive
Su(var)3-3 (Suppressor of variegation 3-3),DRSC10250,1.03e5,90731,3809,3629,inactive
Ten-a (Tenascin accessory),DRSC18924,6.26e5,2.69e5,36073,5700,inactive
Ten-a (Tenascin accessory),DRSC19496,60490,27552,3828,1108,inactive
Ten-a (Tenascin accessory),DRSC19700,77584,2.06e5,2278,8418,inactive
Ten-a (Tenascin accessory),DRSC19793,1.18e5,3.05e5,2615,11847,inactive
Ten-a (Tenascin accessory),DRSC19864,71777,2.20e5,1546,8951,inactive
Ten-a (Tenascin accessory),DRSC19865,65072,2.89e5,1848,10560,inactive
Ten-a (Tenascin accessory),DRSC20290,85111,2.07e5,2616,8902,inactive

Reformatted: entries from further up
| Gene | DRSC id | firefly Hh reporter signal, replicate 1 | firefly Hh reporter signal, replicate 2 | Renilla reference signal, replicate 1 | Renilla reference signal, replicate 2 | Call |
| --- | --- | --- | --- | --- | --- | --- |
| Ten-a (Tenascin accessory) | DRSC19864 | 71777 | 2.20e5 | 1546 | 8951 | inactive |
| Ten-a (Tenascin accessory) | DRSC19865 | 65072 | 2.89e5 | 1848 | 10560 | inactive |
